## Screening data, single-dose tests

Amino acid sequences for entries named in this document (tags omitted). Residues count along the entry.
UniProt Q8IDJ8, 1-583: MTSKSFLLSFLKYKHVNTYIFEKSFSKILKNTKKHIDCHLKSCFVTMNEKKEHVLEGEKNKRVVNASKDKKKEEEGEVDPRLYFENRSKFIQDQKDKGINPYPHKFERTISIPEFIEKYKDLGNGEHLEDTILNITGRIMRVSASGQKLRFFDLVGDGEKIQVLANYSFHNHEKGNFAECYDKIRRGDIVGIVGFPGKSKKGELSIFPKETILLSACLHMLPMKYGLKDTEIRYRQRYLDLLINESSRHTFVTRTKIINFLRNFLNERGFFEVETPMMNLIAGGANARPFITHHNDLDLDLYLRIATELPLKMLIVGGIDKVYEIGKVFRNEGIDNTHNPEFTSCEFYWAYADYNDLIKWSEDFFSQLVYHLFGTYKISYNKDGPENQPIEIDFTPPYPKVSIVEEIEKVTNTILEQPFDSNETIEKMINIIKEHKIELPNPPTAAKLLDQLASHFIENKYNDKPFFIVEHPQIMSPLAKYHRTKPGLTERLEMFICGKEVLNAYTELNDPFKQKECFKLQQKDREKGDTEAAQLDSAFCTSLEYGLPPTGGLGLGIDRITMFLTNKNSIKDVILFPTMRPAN

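Lysine-tRNA ligase, Plasmodium falciparum 3D7 (UniProt Q8IDJ8). Enzyme assay of the cytosolic lysyl-tRNA synthetase in 384-well plates, read by luminescence. Concentration: 30 µM. Direction is inferred from only a few compounds that gave an IC50; most scored high, so higher reads as stronger inhibition. Size under these conditions: about 69,000 compounds, about 49 of them at 50% or above in at least one test.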

Results are given as percent effect.
The controls that fix the scale are not given in the record; negative values are as filed.
The compounds are a random part of those screened.

| compound | effect |
|---|---|
| `COc1c(CNC(c2ccccc2)c2nccn2C)c(C)nn1C` (stereo not given) | 1.8 |
| `CCOCCC(=O)NCC(C)c1ccsc1` (stereo not given) | -0.7999 |
| `CC(C)(NCc1cccc(C(N)=O)c1)c1ccc2c(c1)OCO2` | 3.88 |
| `CCc1ccc(C(=O)NCc2ccnc(N3CCN(C)CC3)c2)o1` | 1.428 |
| `CCn1cnnc1C1CCN(C(=O)c2cnc(C3CC3)s2)CC1` | 12.15 |
| `Cc1ccc(-c2cc(C(=O)NCC3CCOC3)n[nH]2)s1` (stereo not given) | 0.669 |
| `CN(C)CCN1CC2(CCC1=O)CCN(C(=O)c1ccn(C)n1)CC2` | 5.523 |
| `CCS(=O)(=O)N1CCC2(CC1)COC(COc1cccnc1)C2` (stereo not given) | 2.692 |
| `COC(=O)C(C)(C)NC(=O)c1cc(COc2ccccc2OC)[nH]n1` | 2.969 |
| `Nc1no[n+]([O-])c1C(=O)NCc1ccccn1` | 1.075 |
| `CNc1ccnc(N2CC[C@@](O)(C3CCOCC3)[C@H](C)C2)n1` | -0.1097 |
| `Cc1cc(Cl)ccc1NCc1ccc(C(=O)N(C)C)[nH]1` | 4.847 |
| `Cc1cc(C(F)(F)F)nn1CC(C)C(=O)Nc1ccccn1` (stereo not given) | 3.764 |
| `Cn1ccnc1CN1CCN(c2ncnc3ccsc23)CC1` | 4.442 |
| `CCOC(=O)c1coc(N2CCN(Cc3ccc(C)cc3)C(=O)C2)n1` | -0.1584 |
| `O=C1CCC2(CCOC2)CN1Cc1nncn1CCc1ccccc1` (stereo not given) | 3.585 |
| `CCn1cc(CN2CCCn3nc(CNC(=O)N(C)C)cc3C2)cn1` | -0.3064 |
| `O=C(Nc1cn[nH]c1)c1ccncc1` | 1.787 |
| `Cc1ccc(C(NCC(=O)N2CCNC(=O)C2)C(F)(F)F)cc1` (stereo not given) | -0.4752 |
| `COc1ccc(F)cc1CSCC(=O)N(C)CCC#N` | 1.953 |
| `Cc1cc(NC(=O)NC(C)(C)c2nc(C)c(C)s2)no1` | 1.995 |
| `CN(Cc1ccccc1)CC1CC2(CO1)CN(Cc1cnn(C)c1)C2` (stereo not given) | 0.5325 |
| `CC[S+](CC)[c-]1c(=O)[nH]c(=O)n(CCc2ccc(F)cc2)c1=O` | 5.589 |
| `N#Cc1ccc(CNCC2(c3ccccc3)CCOCC2)cc1` | 1.233 |
| `Cc1cc(CN2C[C@H](OCC3CCOCC3)[C@H]3COC[C@H]32)oc1C` | 3.415 |
| `CCn1c(NCc2ccccc2)nc2c(C)nn(C)c2c1=O` | 6.803 |
| `Cc1nn(C)c(N(C)C)c1CNCc1nnc2n1CCCCC2` | 0.1244 |
| `O=C(NCCCc1cccs1)N1CCCCC1CCO` (stereo not given) | 4.448 |
| `CC(C)Oc1ccccc1CNC(=O)N1CCC(n2cncn2)CC1` | 3.242 |
| `CCCc1nc(C(=O)NCc2cccnc2-n2cncn2)cs1` | -0.3444 |
| `COc1cc(C2(C(=O)NC3CCN(C4CC4)CC3)CC2)ccc1C` | 6.665 |
| `Cc1sc2ncnc(N3CCC(N(C)Cc4cnn(C)c4)CC3)c2c1C` | 2.16 |
| `O=C1OC2(CCNCC2)CN1CC(=O)N1CCCC1c1nccs1` (stereo not given) | 2.881 |
| `COc1ccc(-c2c(C)nn3c(=N)c(C#N)n[nH]c23)cc1` | 7.11 |
| `CNc1cc(C2CCCN2S(=O)(=O)c2cccc(F)c2)ccn1` (stereo not given) | 0.8065 |
| `CNc1ncc(C(=O)N2CCC(c3ccccc3C(=O)O)C2)cn1` (stereo not given) | 6.178 |
| `COCCC(=O)N1CCCC(CCC(=O)NCc2cccc(OC)c2)C1` (stereo not given) | 0.618 |
| `Cc1cc(N(C)CCN(C)C2CCCC2)n2nc(C)cc2n1` | 7.356 |
| `Cc1ccccc1Cn1cnc2oc(C)c(C(=O)O)c2c1=O` | 8.504 |
| `CNC(=O)[C@H]1C[C@H]2OCC[C@H]2N(CC2CC2)C1` | 9.258 |
| `CCc1nc(C2CCCN2CC(=O)Nc2cc(C)on2)no1` (stereo not given) | 2.459 |
| `Cc1cccc(C(C(=O)N2CC(c3ccccn3)C2)N(C)C)c1` (stereo not given) | -1.731 |
| `CC(C)OC(=O)NCc1ccc(NCc2cnn(C(C)(C)C)c2)cc1` | -0.4322 |
| `O=C(CCc1cccnc1)N1CCCC(n2cncn2)C1` (stereo not given) | 4.492 |
| `Cc1nc(CNC(=O)NC2CCN(c3ncccc3Cl)C2)oc1C` (stereo not given) | 0.632 |
| `CN(CC(=O)NS(=O)(=O)c1ccsc1)Cc1ccccc1` | 9.152 |
| `Fc1ccc2c(C3=CCN(Cc4nnc(C5CCC5)o4)CC3)c[nH]c2c1` | 1.6 |
| `O=C(C1CC1)N1CCN2C[C@H](c3ccccc3)[C@@H](CO)[C@H]2C1` | 3.42 |
| `Cc1nc(C2CCCN2Cc2nnc(Cc3ccccc3)o2)no1` (stereo not given) | 6.47 |
| `Cc1nc(C)c(C)c(N2CCC(NCCOc3ccccc3)CC2)n1` | -4.35 |
| `Cc1cc2cc(C(=O)N[C@@H]3CC[C@@H](N4CCCC4)[C@@H]3O)ccc2o1` | 3.46 |
| `Cc1noc(C)c1CN1CCN(C(C)c2nc(C3CC3)no2)CC1` (stereo not given) | -2.197 |
| `CCC(=O)N1CCCC(c2ncc3c(n2)CCN(C)C3)C1` (stereo not given) | 5.814 |
| `CC(Nc1nc2c(cnn2C)c(=O)[nH]1)c1ccc(F)cc1` (stereo not given) | 5.464 |
| `Cc1cnn(CC2CCCN2CC(=O)N(C)Cc2ccco2)c1` (stereo not given) | 1.034 |

Some entries from above, unchanged:

compound,effect
Cc1ccccc1Cn1cnc2oc(C)c(C(=O)O)c2c1=O,8.504
Cc1nc(C)c(C)c(N2CCC(NCCOc3ccccc3)CC2)n1,-4.35
Cc1sc2ncnc(N3CCC(N(C)Cc4cnn(C)c4)CC3)c2c1C,2.16
COC(=O)C(C)(C)NC(=O)c1cc(COc2ccccc2OC)[nH]n1,2.969

From ChEMBL document CHEMBL3988442, “University of Dundee, Small-Polar-MMV Screening Library” (2021).